According to paper PMC10352325, “Nitro-benzylideneoxymorphone, a bifunctional mu and delta opioid receptor ligand with high mu opioid receptor efficacy” (Frontiers in Pharmacology, 2023):

Tested on: C57BL/6 mice
Assay: Acute antinociception, 50°C warm water tail withdrawal (WWTW)
Assay type: in vivo, mouse
Details: i.p., 32 mg/kg 12 or 10 mg/kg morphine, tested every 30 min
Method: The 50°C warm water tail withdrawal (WWTW) antinociception assay is a standard preclinical pain assay, in which clinical analgesics increase the latency of tail removal from the warm water (Figure 2A).
To compare the total antinociceptive activity over time, we determined the area under the curve (AUC) of each ligand’s time-course.
Acute antinociception: 50°C warm-water tail withdrawal test in C57BL/6 mice. […] A maximum cutoff time of 20 s was implemented to prevent tissue damage. […] Drug-stimulated antinociception was expressed as a percentage of maximum possible effect (% MPE), where % MPE = (drug latency—baseline latency)/(cutoff latency—baseline latency) × 100. The acute antinociception results were analyzed with a one-way ANOVA followed by a post hoc Dunnett test comparing the drug(s) to vehicle.

CN1CC[C@]23c4c5ccc(O)c4O[C@H]2[C@@H](O)C=C[C@H]3[C@H]1C5 [morphine, reference compound]
area under the curve (AUC) of antinociceptive time-course: 11,934 s*min
